Data on four sequences can be found in publication PMC3210094.

Data set [1] has as its target T1, Foxa1 (zebrafish) (UniProt Q6P0C9).
T1 sequence (looked up, limits assumed): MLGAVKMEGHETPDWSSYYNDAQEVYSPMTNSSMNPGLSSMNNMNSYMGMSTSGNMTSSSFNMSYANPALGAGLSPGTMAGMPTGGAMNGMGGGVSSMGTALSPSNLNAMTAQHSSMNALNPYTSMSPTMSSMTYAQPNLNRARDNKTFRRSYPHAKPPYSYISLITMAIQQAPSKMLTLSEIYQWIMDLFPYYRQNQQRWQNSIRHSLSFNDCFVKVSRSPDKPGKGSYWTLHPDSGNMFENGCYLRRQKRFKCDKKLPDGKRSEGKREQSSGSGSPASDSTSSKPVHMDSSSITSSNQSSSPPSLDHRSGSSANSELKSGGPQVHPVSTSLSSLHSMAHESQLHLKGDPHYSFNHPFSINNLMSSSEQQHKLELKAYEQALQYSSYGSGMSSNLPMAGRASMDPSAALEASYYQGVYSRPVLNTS
Kind of data set: EMSA. The note with it: nuclear extract, Foxa1 identified by supershift on EM4 only; 10 nM probe, 10 ug nuclear extract, 500 ng poly dI-dC, 40 mM Tris-HCl pH 8.0, 0.4 mg/ml BSA, 200 uM ZnCl2, 400 mM KCl, 40% glycerol, 0.4% IGEPAL, 4 C, 1 h; 8% 1X TBE gel; protein in an extract; label: 5' Cy5. A general note: Mobility shift assays separate free from complexed probe on a gel.

The target of data set [2] is T1, Foxa1 (zebrafish). Kind of data set: EMSA supershift. The note with it: FOXA1 antibody, nuclear extract; 10 nM probe, 10 ug nuclear extract, 500 ng poly dI-dC, 40 mM Tris-HCl pH 8.0, 0.4 mg/ml BSA, 200 uM ZnCl2, 400 mM KCl, 40% glycerol, 0.4% IGEPAL, 4 C, 1 h; 8% 1X TBE gel; protein in an extract; label: 5' Cy5.

Construct, isoform or probe ends are uncertain for at least one entry. At least one result comes from cells or an extract, where the contact may be indirect. For some of these results: A negative result means that nothing was seen under these conditions. For some of these results: At least one verdict was read from the data and is not stated in words by the source. Where a protein sequence is shown, tags need not be part of it. For some of these results: The comparison behind a weaker result is the experiment's own reference, which may not be listed here.

Regarding “CTCGTTCTCTGCCTTTCTCTGGAGGGAGGGCTCTCCCTCT (double strand) [EM4 mutant M21-30]”, in the data set with Foxa1 (zebrafish) [1], the binding result is on record as “no binding”.

Consider “CTCGTTCTCTGCCTTTCTCTGGAGGTCTTTCTCTCCCTCT (double strand) [EM4 mutant Probe 5 (nt 21-25)]”, for which the binding result with Foxa1 (zebrafish) [1] is “no binding”.

“CTCGTTCTCTGCCTTTCTCTTTCTTGAGGGCTCTCCCTCT (double strand) [EM4 mutant Probe 6 (nt 26-30)]”: the binding result in the data set with Foxa1 (zebrafish) [1] is “binds more weakly”.

As to “CTCGTTCTCTGCCTTTCTCTTTCTTTCTTTCTCTCCCTCT (double strand) [EM4]”, in the data set with Foxa1 (zebrafish) [2], the binding result is given as “binds”.
